We go through one molecule from PMC3254653.

Experiment [1] deals with T1, Myc-Smo^SA (phosphorylation deficient form of Smo with three PKA sites mutated to Ala) (Drosophila) (UniProt P91682).
T1 sequence: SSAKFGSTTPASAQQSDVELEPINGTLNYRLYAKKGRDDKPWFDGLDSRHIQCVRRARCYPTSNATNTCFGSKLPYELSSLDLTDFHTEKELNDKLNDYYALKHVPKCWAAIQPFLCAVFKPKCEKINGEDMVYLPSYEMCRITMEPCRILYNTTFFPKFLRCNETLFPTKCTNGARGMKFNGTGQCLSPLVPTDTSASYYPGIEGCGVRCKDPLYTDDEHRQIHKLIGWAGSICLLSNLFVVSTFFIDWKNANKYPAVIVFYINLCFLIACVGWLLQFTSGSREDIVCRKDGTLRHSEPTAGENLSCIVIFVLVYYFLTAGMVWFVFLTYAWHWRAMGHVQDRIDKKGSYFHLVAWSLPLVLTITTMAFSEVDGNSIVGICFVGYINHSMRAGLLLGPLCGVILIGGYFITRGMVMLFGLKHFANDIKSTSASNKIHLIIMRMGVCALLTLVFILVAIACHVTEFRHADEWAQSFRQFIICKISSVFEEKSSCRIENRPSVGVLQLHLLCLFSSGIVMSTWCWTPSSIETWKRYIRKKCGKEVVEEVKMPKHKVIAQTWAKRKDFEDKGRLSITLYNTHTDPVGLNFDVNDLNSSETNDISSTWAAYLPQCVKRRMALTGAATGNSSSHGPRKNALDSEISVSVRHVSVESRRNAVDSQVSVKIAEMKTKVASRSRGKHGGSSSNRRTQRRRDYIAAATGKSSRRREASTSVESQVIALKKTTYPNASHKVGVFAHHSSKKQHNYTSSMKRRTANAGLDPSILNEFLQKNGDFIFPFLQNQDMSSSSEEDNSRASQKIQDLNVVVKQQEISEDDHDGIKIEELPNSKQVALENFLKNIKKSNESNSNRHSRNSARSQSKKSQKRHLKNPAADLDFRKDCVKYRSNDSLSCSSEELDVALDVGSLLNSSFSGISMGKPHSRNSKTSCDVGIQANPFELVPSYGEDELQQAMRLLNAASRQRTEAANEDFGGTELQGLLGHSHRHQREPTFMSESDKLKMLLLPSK
Kind of experiment: co-IP; S2 cells transfected with Krz-YFP and Myc-tagged wild type Smo or Smo variants, treated with or without Hh-conditioned medium; Myc-Smo as bait, Western blot of lysates and immunoprecipitates.

The target of experiment [2] is T2, Myc-tagged wild type Smoothened (Myc-Smo) (Drosophila) (UniProt P91682).
T2 sequence: T1 sequence with A636S, A656S, A709S
The experiment is described as above.

Substitutions are numbered along the chain they refer to. These are yes or no findings as the source states them, for the method shown. In cells and extracts the contact can be indirect. Some binding calls cover weakened binding; strength is not graded here. Sequences can lack the tags named with a protein.

B1: C-terminally YFP-tagged Kurtz (Krz-YFP) (protein, UniProt Q9V393 1-470)
chain: MNGGGGGSGGANVSNGSSTNVTAAGSTGGGSAGDETGGDASSRRQATRVFKKSSSNGKITVYLGKRDFVDHVTHVDPIDGVVFIDPEYVKDRKVFGQVLAAFRYGREDLDVLGLTFRKDLYLAHEQIYPPMQLDRPMTRLQERLIKKLGPNAHPFYFEVPPYCPASVSLQPAPGDVGKSCGVDYELKAFVGENVEDKPHKRNSVRLTIRKVMYAPSKVGEQPSIEVSKEFMMKPNKIHLEATLDKELYHHGEKISVNVHVANNSNRTVKKIKVCVRQFADICLFSTAQYKSVVAEIESEDGCQVAPGFTLSKVFELCPLLANNKDKWGLALDGQLKHEDTNLASSTLITNPAQRESLGIMVHYKVKVKLLISSPLLNGDLVAELPFTLMHPKPEEEEHPLLGERSPRASLAGGGLPLVSMSDGETESATGGQDVPTTTNLIQLDDDEAQDDDIIFEDFARLRLKGAETEA
On to B1, for which the binding result in experiment [1] and in experiment [2] was “binds” throughout.
